The series relates to TMD8 BTK-GFP/mCh cells. The series can be described thus: Viability by FSC/SSC gate (flow cytometry) in TMD8 BTK-GFP/mCh cells. Format: cell-based, human. The settings on record: for V/D score, viability window GI50/DC50: TMD8 BTK-GFP/mCh; for V/D score, viability window GI50/DC50 / V/D (GI50 Viability/DC50 BTK Degradation): 24 h; for V/D [GI50 Viability / DC50 Degradation]: top dose used if no DC50 or GI50; for V/D (GI50 Viability/DC50 BTK Degradation): Fig. 6b. The procedure:
For flow cytometry measurements, 25,000 exponentially growing TMD8 BTK-GFP/mCh cells were plated in 100 μL of each well of a 96-well plate and grown for 24 h. Cells were then dosed with corresponding compounds and doses from 10 mM DMSO stock for 24 h, after which GFP and mCherry fluorescence was read with a Beckmann Coulter Cytoflex. For competition experiment, both compounds were added at the same time and dosed for 24 h. Cells were gated based on Forward & Side Scatter and selection for Single cells using SSC-A vs. SSC-H. Further, the population of viable cells was defined by the forward & side-scatter characteristics of DMSO-treated cells. […] Effects on viability were measured by the reduction of the percentage of cells included in this viable-population gate with increasing doses of compound tested. Degradation of BTK was calculated based on subtracting background (BG) fluorescence of parental TMD8 signal via (GFP-BG)/(mCherry-BG) of viable cells. Median ratios of three technical (different wells) replicates were used to calculate daily averages. Each compound dose–response was generated via three biological replicates (different days of experiment). Degradation curve parameters (DC50 & Abs. DC50 & max. Deg) were extracted using GraphPad Prism’s 4-parameter logistic curve fitting.
The viability window was determined by measuring the GI50 of viability based on the percentage of cells included in the viable gate and comparing it to the DC50 of degradation. The fold-change difference describing this window is [GI50 Viability / DC50 Degradation], where values above 1 indicate a positive (lower DC50 degradation than AC50 viability) window.

We go through six molecules from article PMC10766610, “DCAF1-based PROTACs with activity against clinically validated targets overcoming intrinsic- and acquired-degrader resistance” (Nature Communications, 2024).

`Cc1nc(Nc2ncc(C(=O)Nc3c(C)cccc3Cl)s2)cc(N2CCC(OC3CCN(CCCCCCCC(=O)N4CCN(c5ccc6c(NCCN)nc(C7(c8ccc(Cl)cc8)CCCCC7)nc6c5)CC4)CC3)CC2)n1` [DDa-1]: the “V/D score, viability window GI50/DC50” value came out at 13.1 and the “V/D [GI50 Viability / DC50 Degradation]” value turned out to be 13.1.

For the molecule `Cc1c(NC(=O)N2CC(O)(CC(C)(C)C)C2)cc(F)cc1-c1ncnc2[nH]c(-c3cnn(CC(=O)N4CCC5(CCNCC5)CC4)c3)cc12` [compound 19], the “V/D [GI50 Viability / DC50 Degradation]” value came to 1.0.

In the case of `Cc1c(NC(=O)c2ccc(C(C)(C)O)cc2F)cc(F)cc1-c1ncnc2[nH]c(-c3ccc(CNCCOCCOCCOCCOCCOCCOCCOCCOCCOCCOCCOCCOCCC(=O)N4CCN(c5ccc6c(NCCN)nc(C7(c8ccc(Cl)cc8)CCCCC7)nc6c5)CC4)cc3)cc12` [DBt-5], the “V/D (GI50 Viability/DC50 BTK Degradation)” value is 84.7 and the “V/D [GI50 Viability / DC50 Degradation]” value is recorded as 84.7.

`Cc1c(NC(=O)c2ccc(C(C)(C)O)cc2F)cc(F)cc1-c1ncnc2[nH]c(-c3ccc(CN4CCC5(CCNCC5)CC4)cc3)cc12` [compound 18, reference compound]: the “V/D [GI50 Viability / DC50 Degradation]” value is listed as 1.0.

As for `CCN(CC)Cc1ccc(-c2cc3c(-c4cc(F)cc(NC(=O)c5ccc(C(C)(C)O)cc5F)c4C)ncnc3[nH]2)cc1` [compound 17, reference compound], the “V/D score, viability window GI50/DC50” value worked out at 0.3 and the “V/D [GI50 Viability / DC50 Degradation]” value was found to be 0.27.

Regarding `Cc1c(NC(=O)N2CC(O)(CC(C)(C)C)C2)cc(F)cc1-c1ncnc2[nH]c(-c3cnn(CC(=O)N4CCC5(CC4)CN(CCNC(=O)CCCC(=O)N4CCN(c6ccc7c(NCCN)nc(C8(c9ccc(Cl)cc9)CCCCC8)nc7c6)CC4)CCO5)c3)cc12` [DBt-10], the “V/D (GI50 Viability/DC50 BTK Degradation)” value is reported as more than 182.6.
